Data on 36 molecules can be found in the supplement of paper PMC11348887.

Counter-ions that a name gives are not always drawn. The list shows a part of the results. Small differences around the control level are noise.

For the first assay, the system named is hPSC-derived cortical neurons (WA09). Kind of assay: total neurite length per nucleus (MAP2) z-score; higher = more neurite growth. Particulars: 5 µM; treatment: days 7-14 after plating, readout day 21.
`CC1CNc2c(cccc2S(=O)(=O)N[C@@H](CCCNC(=N)N)C(=O)N2CC[C@@H](C)C[C@@H]2C(=O)O)C1` (stereo partly specified) [Argatroban]: the “total neurite length per nucleus (z-score)” value turned out to be 0.0809.

Turning to `CC1=NN(c2ccc(C)c(C)c2)C(=O)/C1=N\Nc1cccc(-c2cccc(C(=O)O)c2)c1O` [Eltrombopag Olamine], the “total neurite length per nucleus (z-score)” value was -0.49.

Take `CCOc1nc2cccc(C(=O)OCc3oc(=O)oc3C)c2n1Cc1ccc(-c2ccccc2-c2noc(=O)[nH]2)cc1` [Azilsartan Medoxomil]: the “total neurite length per nucleus (z-score)” value stood at 1.07.

As to `CNC[C@H](O)c1ccc(O)c(O)c1` [Epinephrine Bitartrate], the “total neurite length per nucleus (z-score)” value was -0.0822.

For the molecule `O=P(O)(O)C(Cl)(Cl)P(=O)(O)O` [Clodronate Disodium], the “total neurite length per nucleus (z-score)” value worked out at 0.723.

A further assay has the same test system. Briefly: nucleus roundness z-score vs screen plate; higher = rounder nuclei (more mature). The settings on record: 5 µM; treatment: days 7-14 after plating, readout day 21.
`COc1cc2nc(N3CCCC3)nc(NCCCCCN3CCCC3)c2cc1OC` showed a nucleus roundness z-score of -7.51.

As to `CCOC(=O)c1ccc(N2NC(=O)C(=Cc3ccc([N+](=O)[O-])o3)C2=O)cc1`, the nucleus roundness z-score came to 0.213.

Regarding `Cc1ccc(NC(=O)Nc2cc(C(F)(F)F)ccc2F)cc1Nc1ccc2c(c1)NC(=O)/C2=C\c1ccc[nH]1`, the nucleus roundness z-score was -4.

On to `Cc1c(Nc2ncccc2C(=O)O)cccc1C(F)(F)F` [Flunixin Meglumin], for which the nucleus roundness z-score came to 0.349.

Molecule `C[C@@H]1CC(=O)NN=C1c1ccc(NN=C(C#N)C#N)cc1` [Levosimendan] had a nucleus roundness z-score of 1.89.

`CN(C)CC/C=C1/c2ccccc2Sc2ccc(Cl)cc21` [Chlorprothixene] returned a nucleus roundness z-score of -0.392.

For `COC(=O)c1ccc2c(c1)[nH]c1ncnc(NCCCN3CCCCC3)c12`, the nucleus roundness z-score was 1.16.

In turn, `CCC(=O)c1c(O)cc(O)cc1O` [Flopropione] showed a nucleus roundness z-score of -0.297.

For the molecule `CC(C)(CO)C(O)C(=O)NCCC(=O)O` [Calcium D-Panthotenate], the nucleus roundness z-score is -0.791.

Molecule `CCOC(=O)[C@H](CCc1ccccc1)N[C@H]1CCCN2CCC[C@@H](C(=O)O)N2C1=O` [Cilazapril Monohydrate] registered a nucleus roundness z-score of 0.36.

`O=C(CSc1nc2c(c(=O)n1-c1ccccc1)SCC2)Nc1ccc(-c2ccccc2)cn1`: the nucleus roundness z-score was 0.239.

The molecule `CCCOc1ccn2c(C(C)=O)cc(-c3ccccc3S(C)(=O)=O)c2c1` came in with a nucleus roundness z-score of -0.13.

Turning to `O=C1N=C(O)NC1(c1ccccc1)c1ccccc1` [Phenytoin sodium], the nucleus roundness z-score stood at 0.604.

Consider `CC(C)(O/N=C(\C(=O)N[C@@H]1C(=O)N2C(C(=O)[O-])=C(C[n+]3ccccc3)CS[C@H]12)c1csc(N)n1)C(=O)O` [Ceftazidime Pentahydrate], for which the nucleus roundness z-score worked out at 0.398.

As to `C[C@]12CCC3=C4CCC(=O)C=C4CC[C@H]3[C@@H]1CC[C@@]2(O)CC#N` [Dienogest], the nucleus roundness z-score came to 0.0639.

`[I-].[K+]` [Potassium Iodide] came in with a nucleus roundness z-score of -0.12.

The molecule `COc1ccc(-c2cc(=O)c3c(O)cc(O[C@@H]4O[C@H](CO[C@@H]5O[C@@H](C)[C@H](O)[C@@H](O)[C@H]5O)[C@@H](O)[C@H](O)[C@H]4O)cc3o2)cc1O` [Diosmin] registered a nucleus roundness z-score of 0.781.

Take `CCN(CC)CC(=O)Nc1c(C)cccc1C` [Lidocaine hydrochloride]: the nucleus roundness z-score was found to be 0.324.

Molecule `O=C(O)c1ccc(C=C2SC(=S)N(c3cccc(C(F)(F)F)c3)C2=O)cc1` showed a nucleus roundness z-score of 0.306.

Regarding `CCN(CC)CCNC(C(=O)OCCC(C)C)c1ccccc1` (stereo unspecified) [Camylofin Chlorhydrate], the nucleus roundness z-score is -1.12.

As to `CN(CCOc1ccc(NS(C)(=O)=O)cc1)CCc1ccc(NS(C)(=O)=O)cc1` [Dofetilide], the nucleus roundness z-score came to 0.152.

Take `NNc1nncc2ccccc12` [Hydralazine HCl]: the nucleus roundness z-score is -0.0192.

With `COc1cccc(C=NCCN=Cc2cccc(OC)c2[O-])c1[O-].[Cl-].[Mn+3]`, the nucleus roundness z-score came out at 0.166.

In the case of `NCC[C@H](O)C(=O)N[C@@H]1C[C@H](N)[C@@H](O[C@H]2O[C@H](CN)[C@@H](O)[C@H](O)[C@H]2O)[C@H](O)[C@H]1O[C@H]1O[C@H](CO)[C@@H](O)[C@H](N)[C@H]1O` [Amikacin disulfate], the nucleus roundness z-score was 0.992.

Regarding `Cc1ncc([N+](=O)[O-])n1CC(C)O` (stereo unspecified) [Secnidazole], the nucleus roundness z-score was 0.0463.

In turn, `COc1ccc(C(C)=O)c(O)c1` [Paeonol] registered a nucleus roundness z-score of -0.0586.

`Cc1cc(O)c2c(c1)C(=O)c1cc(O)cc(O)c1C2=O` [Emodin] gave a nucleus roundness z-score of 0.498.

Take `CC1CCN(CC[C@H]2CCCN2S(=O)(=O)c2cccc(O)c2)CC1`: the nucleus roundness z-score is -0.614.

Take `Nc1nc(F)nc2c1ncn2[C@@H]1O[C@H](CO)[C@@H](O)[C@@H]1O` [Fludarabine]: the nucleus roundness z-score was -0.75.

`CCCCNc1ncc2c(-c3ccc(CN4CCN(C)CC4)cc3)cn([C@H]3CC[C@H](O)CC3)c2n1` returned a nucleus roundness z-score of -9.71.

Take `NS(=O)(=O)c1cc2c(cc1Cl)NCNS2(=O)=O` [Hydrochlorothiazide]: the nucleus roundness z-score was -1.36.
